PubChem BioAssay AID1159508 – Drosophila RNAi Screening Center | 2015

- Assay: 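Overall cell fitness after RNAi as a quality check of the library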
- Cells: Drosophila S2R+ cells
- Reagent: long dsRNA against Drosophila genes
- Time to read-out: 5 days
- Measurement: 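Total ATP per well measured by luciferase luminescence after 5 days, expressed as z-scores for each replicate and as their average across up to three replicates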
- Direction: mean ATP z-score and ATP z-score: higher = more total ATP luminescence
- Call rule: In these data the active calls have mean ATP z-score at about -2 or lower, or at about 2 or higher
- Meaning of the calls: active = strong ATP change (up or down); inactive = no strong ATP change
The whole screen tested 812 reagents; below is a part drawn at random. 18 of them (2.2%) were called active. 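Calls include both increased and decreased ATP; roughly one in four reagents has no third replicate value.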 Reagents against one gene are numbered here. Reagent sequences are not shown. Not stated in the record: the amount of reagent.

target gene | reagent | mean ATP z-score | ATP z-score, replicate 1 | ATP z-score, replicate 2 | ATP z-score, replicate 3 | call
CG31368 | 1 | 0.0911 | 0.0542 | 0.116 | – | inactive
CG31368 | 2 | -0.326 | -0.611 | -0.558 | 0.253 | inactive
caz | 1 | -0.0742 | -0.142 | -0.0454 | -0.0207 | inactive
caz | 2 | -0.202 | -0.47 | -0.201 | 0.103 | inactive
Nelf-A | 1 | -1.4 | -1.41 | -1.26 | -1.25 | inactive
Nelf-A | 2 | -0.085 | -0.448 | -0.106 | 0.315 | inactive
RnpS1 | 1 | 0.737 | 0.398 | 0.542 | 1.13 | inactive
RnpS1 | 2 | 0.215 | -0.678 | -0.324 | 1.61 | inactive
mof | 1 | -0.244 | -0.607 | -0.305 | 0.226 | inactive
mof | 2 | -0.983 | -1.49 | -0.9 | -0.374 | inactive
Dus2 | 1 | -0.39 | -0.763 | -0.428 | 0.0949 | inactive
Dus2 | 2 | 0.445 | -0.00751 | 0.303 | 0.953 | inactive
Srp14 | 1 | 0.673 | -0.0689 | 0.363 | 1.59 | inactive
Srp14 | 2 | 0.843 | 0.548 | 0.731 | 1.09 | inactive
cpo | 1 | 1.31 | 0.471 | 0.947 | 2.27 | inactive
cpo | 2 | 0.407 | -0.268 | 0.611 | 0.8 | inactive
nsr | 1 | 0.643 | -0.198 | 0.177 | 1.83 | inactive
nsr | 2 | 1.08 | 0.891 | 0.946 | 1.19 | inactive
Sf3a1 | 1 | -1.61 | -1.74 | -1.42 | -1.37 | inactive
Sf3a1 | 2 | -1.38 | -1.4 | -1.3 | -1.17 | inactive

3 entries from above in another layout:
Dus2 #2 | mean ATP z-score = 0.445; ATP z-score, replicate 1 = -0.00751; ATP z-score, replicate 2 = 0.303; ATP z-score, replicate 3 = 0.953; call = inactive
Srp14 #1 | mean ATP z-score = 0.673; ATP z-score, replicate 1 = -0.0689; ATP z-score, replicate 2 = 0.363; ATP z-score, replicate 3 = 1.59; call = inactive
Srp14 #2 | mean ATP z-score = 0.843; ATP z-score, replicate 1 = 0.548; ATP z-score, replicate 2 = 0.731; ATP z-score, replicate 3 = 1.09; call = inactive

The listing continues:
target gene | reagent | mean ATP z-score | ATP z-score, replicate 1 | ATP z-score, replicate 2 | ATP z-score, replicate 3 | call
Mtr3 | 1 | -0.257 | -0.61 | -0.091 | -0.022 | inactive
Mtr3 | 2 | -0.11 | -0.678 | 0.118 | 0.251 | inactive
eIF3d2 | 1 | -0.166 | -0.325 | -0.0721 | -0.0685 | inactive
eIF3d2 | 2 | 0.511 | -0.7 | 1.03 | 1.11 | inactive
Gga | 1 | 0.592 | 0.454 | 0.654 | – | inactive
Gga | 2 | -0.236 | -0.251 | -0.19 | – | inactive
CG14414 | 1 | -0.569 | -0.629 | -0.539 | -0.429 | inactive
CG14414 | 2 | -0.0998 | -0.987 | 0.801 | – | inactive
Sf3b6 | 1 | -1.12 | -1.28 | -1.04 | -0.835 | inactive
Sf3b6 | 2 | -1.06 | -1.5 | -0.871 | -0.614 | inactive
Trm1 | 1 | 0.0875 | -0.441 | -0.317 | 1 | inactive
Trm1 | 2 | 0.588 | 0.443 | 0.589 | 0.618 | inactive
Rbfox1 | 1 | 0.55 | 0.0976 | 0.272 | 1.18 | inactive
Rbfox1 | 2 | 0.558 | 0.394 | 0.65 | – | inactive
CG12288 | 1 | -0.215 | -0.472 | -0.153 | 0.0197 | inactive
CG12288 | 2 | -0.146 | -1.02 | -0.811 | 1.42 | inactive
CG6712 | 1 | 0.684 | -0.352 | 0.0836 | 2.19 | inactive
CG6712 | 2 | 0.837 | 0.616 | 0.857 | 0.878 | inactive
eIF3f1 | 1 | 0.916 | 0.616 | 0.871 | 1.09 | inactive
eIF3f1 | 2 | 0.508 | 0.114 | 0.412 | 0.901 | inactive
mRpL49 | 1 | -0.391 | -0.671 | -0.0606 | – | inactive
mRpL49 | 2 | 0.986 | 0.702 | 0.907 | 1.16 | inactive
Nab2 | 1 | 0.0186 | -0.368 | -0.136 | 0.556 | inactive
Nab2 | 2 | -0.148 | -0.396 | -0.145 | 0.126 | inactive
tsu | 1 | -0.617 | -0.787 | -0.367 | – | inactive
tsu | 2 | 0.406 | -0.314 | 0.628 | 0.825 | inactive
aub | 1 | -0.525 | -0.766 | -0.716 | 0.00885 | inactive
aub | 2 | 0.266 | -0.157 | 0.322 | 0.583 | inactive
CG5800 | 1 | 0.0543 | -0.786 | 0.0044 | 0.934 | inactive
CG5800 | 2 | 0.566 | -0.586 | 0.786 | 1.39 | inactive
kz | 1 | 0.662 | 0.108 | 0.864 | 0.885 | inactive
kz | 2 | 0.385 | -0.0645 | 0.503 | 0.642 | inactive
CG11360 | 1 | 1.6 | 0.934 | 1.17 | 2.37 | inactive
CG11360 | 2 | 0.0575 | -0.341 | 0.449 | – | inactive
cyp33 | 1 | -0.475 | -0.659 | -0.393 | -0.28 | inactive
cyp33 | 2 | -0.592 | -0.807 | -0.46 | -0.395 | inactive
CG6695 | 1 | -0.36 | -0.494 | -0.18 | – | inactive
CG6695 | 2 | -0.281 | -0.491 | -0.454 | 0.156 | inactive
Srp19 | 1 | 1.23 | 0.988 | 1.17 | 1.3 | inactive
Srp19 | 2 | -0.195 | -0.469 | -0.0526 | -0.0266 | inactive
